In US20100075969A1, “Angiogenesis” (UNIVERSITY OF LEICESTER, priority 2006, published 2010):
Some entries share one result that the patent states for a list of compounds.

How the values were obtained:
Assay type in all cases: cell-based, human
[1] = system: dermal microvascular endothelial cells; assay: Single cell migration assay, dermal microvascular endothelial cells; settings: over 1 hour, 10 nM ICI 118,551 or 1 μM salbutamol, vs control
[2] = system: aortic macrovascular endothelial cells; assay: Single cell migration assay, aortic macrovascular endothelial cells; settings: over 1 hour, 10 nM ICI 118,551 or 1 μM salbutamol, vs control
[3] = system: aortic macrovascular cells; assay: Scratch (wound healing) assay, aortic macrovascular cells; settings: within 6 hours of wounding, 10 nM ICI 118,551 or 1 μM salbutamol

CC(C)(C)NCC(O)c1ccc(O)c(CO)c1 (stereo not drawn) [salbutamol]
20-30%: increase in endothelial cell motility [1] | increase in endothelial cell motility [2] | acceleration of wound closure [3]

Cc1ccc(OCC(O)C(C)NC(C)C)c2c1CCC2 (stereo not drawn) [ICI 118,551]
20-30%: increase in endothelial cell motility [1] | increase in endothelial cell motility [2] | acceleration of wound closure [3]
